Data taken from patent US20240108739A1 (PHI PHARMA SA, priority 2020, published 2024).

Experiment: general procedure: Fmoc solid-phase peptide synthesis; Rink Amide resin (capacity: 0.18-0.22 mmol/g)
Details: conjugation step, LC-MS purity analysis of lyophilized final products

| Substance | final LC-MS purity |
| --- | --- |
| [(51-hS)2KS]2-KC-Mal-Biotin | 89.360% |
| (51-hS)2KC-Mal-Val-Cit-Azonafide | 98.462% |
| [(51-hS)2KS]2KC-Mal-Alexa488 | 99.647% |
| [(51-hS)2KS]2KC-Mal-Val-Cit-Azonafide | 94.157% |
| (51-hS)2KS-(51-hS)-KC-Mal-Biotin | 55.798% |
| (51-hS)2KS-(51-hS)KC-Mal-Alexa488 | 99.707% |
| (51-hS)2KC-Mal-Alexa488 | 96.165% |
| (51-hS)2-KC-Mal-Biotin | 91.318% |
| (51-hS)2KS-(51-hS)KC-Mal-Val-Cit-Azonafide | 95.575% |
